Experimental data as given in PMC9701038.
These are yes or no findings as the source states them, for the method shown. Binding seen in cells or lysates may run through a third protein. These calls come from enrichment with a bait or labelling near it, and not all partners need be listed. Each block holds one molecule with its values, some of them ahead of it.

Sequences of proteins named here, by UniProt entry; tags and fusion partners are left off. Residues count along the entry.
UniProt Q13443, residues 29-819: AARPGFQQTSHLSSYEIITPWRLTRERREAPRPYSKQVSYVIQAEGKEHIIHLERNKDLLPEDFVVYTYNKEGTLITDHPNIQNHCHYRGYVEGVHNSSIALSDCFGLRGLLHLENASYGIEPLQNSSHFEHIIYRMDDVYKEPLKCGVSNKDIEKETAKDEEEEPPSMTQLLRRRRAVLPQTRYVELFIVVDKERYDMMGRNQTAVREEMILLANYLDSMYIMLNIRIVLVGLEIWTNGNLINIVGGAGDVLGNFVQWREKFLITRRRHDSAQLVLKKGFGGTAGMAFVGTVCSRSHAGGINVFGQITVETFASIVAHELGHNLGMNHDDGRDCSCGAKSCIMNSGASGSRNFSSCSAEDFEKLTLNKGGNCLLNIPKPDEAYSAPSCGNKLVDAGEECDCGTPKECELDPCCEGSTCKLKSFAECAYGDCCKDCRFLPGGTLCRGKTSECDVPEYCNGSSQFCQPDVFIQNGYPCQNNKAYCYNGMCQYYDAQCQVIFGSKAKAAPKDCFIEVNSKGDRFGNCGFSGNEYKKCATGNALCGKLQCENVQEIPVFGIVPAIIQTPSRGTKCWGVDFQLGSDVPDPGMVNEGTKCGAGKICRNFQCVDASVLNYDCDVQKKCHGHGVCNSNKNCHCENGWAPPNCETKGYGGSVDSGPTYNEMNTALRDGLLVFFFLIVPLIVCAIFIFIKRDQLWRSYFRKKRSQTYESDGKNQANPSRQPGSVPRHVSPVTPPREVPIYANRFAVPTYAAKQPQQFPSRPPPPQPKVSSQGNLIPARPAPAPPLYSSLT
UniProt Q9H5V8, residues 30-836: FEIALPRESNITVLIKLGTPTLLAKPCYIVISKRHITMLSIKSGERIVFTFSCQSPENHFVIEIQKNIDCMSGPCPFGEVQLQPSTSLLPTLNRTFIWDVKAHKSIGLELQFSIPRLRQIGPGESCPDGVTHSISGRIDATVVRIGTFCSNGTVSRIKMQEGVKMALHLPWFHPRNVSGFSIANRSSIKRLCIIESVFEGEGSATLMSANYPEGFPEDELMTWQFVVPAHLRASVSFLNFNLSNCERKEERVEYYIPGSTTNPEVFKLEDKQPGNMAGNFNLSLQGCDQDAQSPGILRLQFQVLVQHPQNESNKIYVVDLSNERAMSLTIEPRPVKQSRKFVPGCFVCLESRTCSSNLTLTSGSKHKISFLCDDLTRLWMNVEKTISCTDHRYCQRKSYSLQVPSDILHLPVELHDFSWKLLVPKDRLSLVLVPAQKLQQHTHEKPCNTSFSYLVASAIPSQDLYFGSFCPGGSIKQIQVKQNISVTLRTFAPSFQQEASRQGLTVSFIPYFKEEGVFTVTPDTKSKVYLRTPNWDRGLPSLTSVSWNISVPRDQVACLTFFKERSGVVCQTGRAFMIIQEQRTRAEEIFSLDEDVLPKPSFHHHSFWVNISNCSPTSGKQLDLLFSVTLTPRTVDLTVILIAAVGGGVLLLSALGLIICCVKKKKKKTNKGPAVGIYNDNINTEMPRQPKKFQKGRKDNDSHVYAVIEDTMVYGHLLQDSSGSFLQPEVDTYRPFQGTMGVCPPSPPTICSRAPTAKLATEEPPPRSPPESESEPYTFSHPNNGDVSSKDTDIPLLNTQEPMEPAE
UniProt Q71RC2: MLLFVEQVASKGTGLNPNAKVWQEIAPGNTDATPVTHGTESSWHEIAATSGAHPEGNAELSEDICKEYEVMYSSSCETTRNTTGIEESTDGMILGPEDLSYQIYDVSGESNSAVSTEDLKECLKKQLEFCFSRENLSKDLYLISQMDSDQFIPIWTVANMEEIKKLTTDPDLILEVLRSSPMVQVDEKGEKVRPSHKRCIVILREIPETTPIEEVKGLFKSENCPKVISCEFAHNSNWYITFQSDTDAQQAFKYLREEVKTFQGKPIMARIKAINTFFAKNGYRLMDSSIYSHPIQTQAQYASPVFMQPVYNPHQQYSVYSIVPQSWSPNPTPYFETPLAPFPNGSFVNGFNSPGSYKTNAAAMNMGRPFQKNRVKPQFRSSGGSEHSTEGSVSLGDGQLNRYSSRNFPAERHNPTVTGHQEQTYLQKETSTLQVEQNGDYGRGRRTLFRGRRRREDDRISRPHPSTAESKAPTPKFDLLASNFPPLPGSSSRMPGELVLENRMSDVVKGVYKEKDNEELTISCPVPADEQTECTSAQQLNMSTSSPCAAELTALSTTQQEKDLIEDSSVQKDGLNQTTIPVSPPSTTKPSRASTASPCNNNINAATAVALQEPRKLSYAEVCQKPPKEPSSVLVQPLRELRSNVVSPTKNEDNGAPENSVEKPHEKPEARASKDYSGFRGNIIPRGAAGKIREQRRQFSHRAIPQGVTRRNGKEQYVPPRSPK
UniProt Q92615: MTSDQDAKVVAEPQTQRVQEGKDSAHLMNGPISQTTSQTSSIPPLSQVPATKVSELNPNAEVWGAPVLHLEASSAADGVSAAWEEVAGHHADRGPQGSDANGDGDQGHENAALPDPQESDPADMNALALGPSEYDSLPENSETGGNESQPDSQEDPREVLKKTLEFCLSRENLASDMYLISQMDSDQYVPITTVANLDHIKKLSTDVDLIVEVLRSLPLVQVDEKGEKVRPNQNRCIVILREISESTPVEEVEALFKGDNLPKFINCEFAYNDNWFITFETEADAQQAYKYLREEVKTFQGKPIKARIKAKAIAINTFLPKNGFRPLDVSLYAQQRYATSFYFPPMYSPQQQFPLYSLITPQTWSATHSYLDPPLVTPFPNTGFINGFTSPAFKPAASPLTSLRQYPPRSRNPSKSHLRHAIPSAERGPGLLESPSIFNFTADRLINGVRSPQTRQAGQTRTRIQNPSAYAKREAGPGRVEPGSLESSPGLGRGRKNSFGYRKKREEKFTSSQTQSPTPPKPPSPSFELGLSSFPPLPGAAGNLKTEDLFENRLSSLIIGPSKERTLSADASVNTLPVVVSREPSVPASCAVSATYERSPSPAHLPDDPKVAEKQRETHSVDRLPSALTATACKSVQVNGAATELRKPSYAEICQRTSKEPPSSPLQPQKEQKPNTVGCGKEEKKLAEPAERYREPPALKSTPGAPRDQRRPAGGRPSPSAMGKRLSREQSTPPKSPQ

What was measured:
[1] = target: ADAM9 (human (endogenous in PANC-1)) (UniProt Q13443); assay: affinity purification with mass spectrometry; IP-MS with an anti-ADAM9 antibody in PANC-1 cells treated with scrambled siRNA or with ADAM9 knocked down
[2] = target: T1, BirA-HOGA1 (from pLVXyu-BirA-HOGA1) (human) (UniProt Q86XE5); assay: proximity labelling; called tandem affinity purification by the paper; PANC-1 cells transfected with pLVXyu-BirA-HOGA1, biotin 50 uM; lysis in 0.1% NP40 buffer (50 mM Tris-HCl pH 7.5, 150 mM NaCl, 0.3% NONIDET P-40); lysate on SBP beads 3 h at 4 C; on-bead tryptic digestion, mass spectrometry
T1 sequence: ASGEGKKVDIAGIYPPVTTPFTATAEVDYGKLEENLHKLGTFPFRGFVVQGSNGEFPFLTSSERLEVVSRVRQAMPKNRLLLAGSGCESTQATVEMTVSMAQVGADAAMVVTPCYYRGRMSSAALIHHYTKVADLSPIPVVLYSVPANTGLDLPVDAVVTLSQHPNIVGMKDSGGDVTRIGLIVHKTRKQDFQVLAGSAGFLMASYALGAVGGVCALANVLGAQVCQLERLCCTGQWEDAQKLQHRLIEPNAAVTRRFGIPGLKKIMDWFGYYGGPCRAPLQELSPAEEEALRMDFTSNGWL

binding [1]: binds
Molecule: CDCP1 (from UniProt Q9H5V8 30-836)

binding [2]: binds
Molecule: LARP4 (from UniProt Q71RC2 1-724)

binding [2]: binds
Molecule: LARP4B (from UniProt Q92615 1-738)

binding [2]: binds
B1: LARP7 (protein, UniProt Q4G0J3 1-582)
chain: METESGNQEKVMEEESTEKKKEVEKKKRSRVKQVLADIAKQVDFWFGDANLHKDRFLREQIEKSRDGYVDISLLVSFNKMKKLTTDGKLIARALRSSAVVELDLEGTRIRRKKPLGERPKDEDERTVYVELLPKNVNHSWIERVFGKCGNVVYISIPHYKSTGDPKGFAFVEFETKEQAAKAIEFLNNPPEEAPRKPGIFPKTVKNKPIPALRVVEEKKKKKKKKGRMKKEDNIQAKEENMDTSNTSISKMKRSRPTSEGSDIESTEPQKQCSKKKKKRDRVEASSLPEVRTGKRKRSSSEDAESLAPRSKVKKIIQKDIIKEASEASKENRDIEISTEEEKDTGDLKDSSLLKTKRKHKKKHKERHKMGEEVIPLRVLSKSEWMDLKKEYLALQKASMASLKKTISQIKSESEMETDSGVPQNTGMKNEKTANREECRTQEKVNATGPQFVSGVIVKIISTEPLPGRKQVRDTLAAISEVLYVDLLEGDTECHARFKTPEDAQAVINAYTEINKKHCWKLEILSGDHEQRYWQKILVDRQAKLNQPREKKRGTEKLITKAEKIRLAKTQQASKHIRFSEYD
